# Earlier results in publication PMC10135964, “One Scaffold, Two Conformations: The Ring-Flip of the Messenger InsP8 Occurs under Cytosolic Conditions” (Biomolecules, 2023).
# Test system: mammalian cells
# Conditions: cited from earlier work; for Cellular concentration: approximate concentrations in mammalian cells
SMILES,Cellular concentration [µM],endogenous concentration
O=P(O)(O)O[C@H]1[C@H](OP(=O)(O)O)[C@@H](OP(=O)(O)O)[C@H](OP(=O)(O)O)[C@@H](OP(=O)(O)O)[C@H]1OP(=O)(O)O [InsP6],20 to 50,
O=P(O)(O)O[C@H]1[C@@H](OP(=O)(O)O)[C@H](OP(=O)(O)O)[C@@H](OP(=O)(O)OP(=O)(O)O)[C@H](OP(=O)(O)O)[C@H]1OP(=O)(O)O [5PP-InsP5],1 to 5,
"O=P(O)(O)O[C@@H]1[C@@H](OP(=O)(O)O)[C@H](OP(=O)(O)OP(=O)(O)O)[C@@H](OP(=O)(O)O)[C@H](OP(=O)(O)OP(=O)(O)O)[C@@H]1OP(=O)(O)O [InsP8, 1,5(PP)2-InsP4]",< 1,around 1 µM
